Where “and” joins values, the source holds several entries; their conditions need not be identical. Identical values can stand only once. Counter-ions that a name gives are not always drawn. ± gives the standard deviation of the averaged measurements. The full ranking holds about 1,800 compounds; the median of “GFP- (p16Ink4a-) cell count relative to negative-control wells” is about 0.99, and the lowest 2% start at about 0.5. This is one part of the list.
tested on: mouse p16Ink4a+/- lung fibroblasts (INKBRITE, bleomycin-injured); test: GFP- (p16Ink4a-) cell count relative to negative-control wells (fold of vehicle); higher = more p16Ink4a- cells surviving; conditions: 1 µM; 3 days

Row | SMILES | GFP-
1 | COC(=O)[C@@H]1[C@H]2C[C@H]3c4[nH]c5ccccc5c4CCN3C[C@@H]2CC[C@@H]1O [Yohimbine] | 0.987
2 | COc1ccc(-c2cc3c(C)nc(N)nc3n([C@H]3CC[C@H](OCCO)CC3)c2=O)cn1 | 0.548
3 | CC(C)OC(=O)C(C(=O)OC(C)C)=C1SC=CS1 [Malotilate] | 0.776
4 | CC(C)N(C[C@H]1O[C@@H](n2cnc3c(N)ncnc32)[C@H](O)[C@@H]1O)C1CC(CCc2nc3cc(C(C)(C)C)ccc3[nH]2)C1 (stereo not given in full) | 0.935 ± 0.06
5 | CCCSc1nc(N[C@@H]2C[C@H]2c2ccc(F)c(F)c2)c2nnn([C@@H]3C[C@H](OCCO)[C@@H](O)[C@H]3O)c2n1 [Ticagrelor] | 0.817
6 | C[C@H]1COC2=C1C(=O)C(=O)c1c2ccc2c1CCCC2(C)C [Cryptotanshinone] | 0.986
7 | COc1cc(Nc2ncc(F)c(Nc3ccc4c(n3)NC(=O)C(C)(C)O4)n2)cc(OC)c1OC | 0.591 and 0.783
8 | COC(=O)[C@H](CCCN=C(N)N)NS(=O)(=O)c1ccc(C)cc1 | 1.02
9 | c1ccc(-c2nn3c(c2-c2ccnc4cc(OCCN5CCOCC5)ccc24)CCC3)nc1 | 1.21
10 | CN(C)N=Nc1[nH]cnc1C(N)=O [Dacarbazine] | 1.02
11 | Nc1nc2ccc(OC(F)(F)F)cc2s1 [Riluzole] | 0.989
12 | O=C(O)c1ccccc1Nc1cccc(C(F)(F)F)c1 [Flufenamic Acid] | 1.05
13 | CC(O)C1C(=O)N2C(C(=O)O)=C(SC3CNC(C(=O)N(C)C)C3)C(C)C12 (stereo not given) [Meropenem] | 1.09
14 | OC[C@H]1O[C@H](O[C@]2(CCl)O[C@H](CCl)[C@@H](O)[C@@H]2O)[C@H](O)[C@@H](O)[C@H]1Cl [Sucralose] | 1.14
15 | C=CCn1c(=O)c2cnc(Nc3ccc(N4CCN(C)CC4)cc3)nc2n1-c1cccc(C(C)(C)O)n1 | 0.409
16 | Clc1ccc(CCC(Cn2ccnc2)Sc2c(Cl)cccc2Cl)cc1 (stereo not given) [Butoconazole] | 1.04
17 | Cc1ccc(-c2cc(C(F)(F)F)nn2-c2ccc(S(N)(=O)=O)cc2)cc1 [Celecoxib] | 1.1
18 | CS(=O)(=O)N1CCN(Cc2cc3nc(-c4cccc5[nH]ncc45)nc(N4CCOCC4)c3s2)CC1 | 0.676
19 | CCCNS(=O)(=O)Nc1ncnc(OCCOc2ncc(Br)cn2)c1-c1ccc(Br)cc1 [Macitentan] | 0.983
20 | COc1cc2nccc(Oc3ccc(NC(=O)Nc4cc(C)on4)c(Cl)c3)c2cc1OC [Tivozanib] | 1.01
21 | Cc1cc(N2CCOCC2)ccc1Nc1nc(NC2CCCCC2)c2[nH]cnc2n1 | 0.793
22 | C[N+](C)(C)CCO [Choline] | 1.17
23 | CCc1c(Cl)c(O)c(Cl)c(O)c1C(=O)O[C@H]1[C@H](O)[C@H](OC)[C@H](OC/C2=C\C=C\C[C@H](O)/C(C)=C\[C@H](CC)[C@@H](O[C@@H]3OC(C)(C)[C@@H](OC(=O)C(C)C)[C@H](O)[C@@H]3O)/C(C)=C\C(C)=C/C[C@@H]([C@@H](C)O)OC2=O)O[C@@H]1C [Fidaxomicin] | 1.01
24 | Cc1ccc(Sc2ccccc2N2CCNCC2)c(C)c1 [Vortioxetine HBr] | 1.01
25 | C=C(C)[C@@H]1CC[C@]2(C(=O)O)CC[C@]3(C)[C@H](CC[C@@H]4[C@@]5(C)CC[C@H](O)C(C)(C)[C@@H]5CC[C@]43C)[C@@H]12 [Betulinic acid] | 1.01
26 | CNC[C@H](O)c1ccc(O)c(O)c1 [Epinephrine] | 0.967 and 1.03 and 1.07
27 | CN1[C@@H]2CC[C@H]1C[C@@H](OC(c1ccccc1)c1ccccc1)C2 [Benzatropine] | 0.973

Row | SMILES | GFP-
28 | CC(S)C(=O)NCC(=O)O (stereo not given) [Tiopronin] | 1.04
29 | O=C(/C=C\n1cnc(-c2cc(C(F)(F)F)cc(C(F)(F)F)c2)n1)N1CC(F)(F)C1 | 0.67
30 | CCCCNc1ncc(-c2ccc(CN3CCOCC3)cn2)c(N[C@H]2CC[C@H](O)CC2)n1 | 0.929
31 | O=C(Nc1ccccc1)c1cc([N+](=O)[O-])ccc1Cl [2-chloro-5-nitro-N-phenylbenzamide] | 1.15
32 | O=C(/C=C/c1ccc(O)c(O)c1)OCCc1ccccc1 [Caffeic Acid Phenethyl Ester] | 0.991
33 | O=C1Cc2c([nH]c3ccc(Br)cc23)-c2ncccc2N1 [1-Azakenpaullone] | 1.09
34 | CN(C)Cc1ccc(-c2nc3cccc4c3n2CCNC4=O)cc1 | 0.796 ± 0.034
35 | CCOC(=O)c1ccc(C#Cc2ccc3c(c2)C(C)(C)CCS3)nc1 [Tazarotene] | 1.05
36 | COc1cc(N2CCC(N(C)C)CC2)ccc1Nc1ncc(Cl)c(Nc2ccccc2P(C)(C)=O)n1 | 1.08
37 | Cn1cc(-c2ccc3nnc(Sc4ccc5ncccc5c4)n3n2)cn1 | 0.95
38 | C[C@H]1[C@H](NC(=O)/C(=N\OC(C)(C)C(=O)O)c2csc(N)n2)C(=O)N1S(=O)(=O)O [Aztreonam] | 0.941
39 | O=C(CCc1ccc(O)cc1)c1c(O)cc(O)cc1O[C@@H]1O[C@H](CO)[C@@H](O)[C@H](O)[C@H]1O [Phloridzin] | 1.25
40 | CC(C)(C)n1nc(-c2ccc(Cl)cc2)c2c(N)ncnc21 | 1.07
41 | Cc1c(Cc2ccc3ccccc3n2)c2cc(F)ccc2n1CC(=O)O | 1.06
42 | COc1cccc2cc(-c3nc([C@H]4CC[C@H](C(=O)O)CC4)n4ncnc(N)c34)[nH]c12 | 0.817
43 | CN/C(=C\[N+](=O)[O-])NCCSCc1ccc(CN(C)C)o1 [Ranitidine] | 1.06
44 | COc1ccc(CN2CCN(C(c3ccc(F)cc3)c3ccc(F)cc3)CC2)c(OC)c1OC [Lomerizine, Lomerizine Dihydrochloride] | 0.985
45 | COc1c(C)c(C(=O)c2ccc(N)c(C(=O)O)c2)n2ccccc12 | 1.07
46 | CC(=O)Nc1ccccc1 [Acetanilide] | 1.04
47 | CN1CCC[C@@H]1CCO[C@](C)(c1ccccc1)c1ccc(Cl)cc1 [Clemastine, Clemastine Fumarate] | 0.976
48 | NC(=S)N/N=C/c1ncccc1N [Triapine] | 0.898
49 | CCCCCCCCCCCCc1ccc(S(=O)(=O)Nc2nncs2)cc1 | 0.919
50 | COc1cc(C)c(/C=C/C(C)=C/C=C/C(C)=C/C(=O)O)c(C)c1C [Acitretin] | 0.862
51 | COc1cc(Nc2ncc3c(n2)-c2ccc(Cl)cc2C(c2c(F)cccc2OC)=NC3)ccc1C(=O)O [Alisertib] | 0.657 ± 0.16
52 | O=C(O)CC[C@H]1CC[C@@](c2cc(F)ccc2F)(S(=O)(=O)c2ccc(Cl)cc2)CC1 | 0.8
53 | O=C(O)[C@H](Cc1c[nH]c2ccccc12)N1C(=O)c2ccccc2C1=O | 1.1 ± 0.13
54 | CN1CCN(C2=Nc3ccccc3Oc3ccc(Cl)cc32)CC1 [Loxapine] | 0.935

Row | SMILES | GFP-
55 | COc1ccc(Cn2ccc3ccc(C(=O)NO)cc32)cc1 | 0.864 ± 0.18
56 | CCO/C(O)=C1\C(C)=NC(C)=C(C(=O)OC)C1c1cccc([N+](=O)[O-])c1 (stereo not given) [Nitrendipine] | 1.18
57 | CO[C@H]1C(=O)[C@]2(C)[C@@H](OC)C[C@H]3OC[C@@]3(OC(C)=O)[C@H]2[C@H](OC(=O)c2ccccc2)[C@]2(O)C[C@H](OC(=O)[C@H](O)[C@@H](NC(=O)OC(C)(C)C)c3ccccc3)C(C)=C1C2(C)C [Cabazitaxel] | 0.558
58 | Cc1ccc(S(=O)(=O)c2ccc([N+](=O)[O-])o2)cc1 | 0.415
59 | CN1CCc2nc(C(=O)N[C@@H]3C[C@@H](C(=O)N(C)C)CC[C@@H]3NC(=O)C(=O)Nc3ccc(Cl)cn3)sc2C1 [Edoxaban] | 1.01
60 | CN(C)CCN1C(=O)c2cccc3cc(N)cc(c23)C1=O [Amonafide] | 0.867
61 | Oc1ncnc2[nH]ncc12 [Allopurinol] | 0.898
62 | CC1CCc2cc(F)cc3c(=O)c(C(=O)O)cn1c23 (stereo not given) [Flumequine] | 0.955
63 | COc1c2occc2cc2ccc(=O)oc12 [Methoxsalen] | 0.975
64 | N#CC[C@@H](C1CCCC1)n1cc(-c2ncnc3[nH]ccc23)cn1 [S-Ruxolitinib] | 0.892 ± 0.077
65 | CC(C)N(CCCNC(=O)Nc1ccc(C(C)(C)C)cc1)C[C@H]1O[C@@H](n2cc(Br)c3c(N)ncnc32)[C@H](O)[C@@H]1O | 1.01 ± 0.042
66 | C[C@@H]1CCO[C@H]2Cn3cc(C(=O)NCc4ccc(F)cc4F)c(=O)c(O)c3C(=O)N12 [Dolutegravir] | 0.916
67 | c1ccc2c(c1)CCCC2C1=NCCN1 (stereo not given) [Tetryzoline] | 0.987
68 | CCCCCCCCCCCC1=C(O)C(O)=CC(=O)C1=O [Embelin] | 0.943
69 | CN(C/C=C/C#CC(C)(C)C)Cc1cccc2ccccc12 [Terbinafine, Terbinafine Hydrochloride] | 1.01 and 1.04
70 | O=C1NC(=O)C(c2ccccc2)(c2ccccc2)N1 [Phenytoin] | 1.14 and 1.07
71 | CCN(Cc1ccncc1)C(=O)C(CO)c1ccccc1 (stereo not given) [Tropicamide] | 0.967
72 | O=C(/C=C/c1cccc(S(=O)(=O)Nc2ccccc2)c1)NO [Belinostat] | 0.623 ± 0.042
73 | Cc1cc(Nc2cc(CN3CCOCC3)c3nc(C)c(Cc4ccc(Cl)cc4F)n3n2)[nH]n1 | 0.793 ± 0.073
74 | COc1c(N2C[C@@H]3CCCN[C@@H]3C2)c(F)cc2c(=O)c(C(=O)O)cn(C3CC3)c12 [Moxifloxacin] | 0.975
75 | C=CC(=O)Nc1cccc(Oc2nc(Nc3ccc(N4CCN(C)CC4)cc3OC)ncc2Cl)c1 | 1.09
76 | Cc1ccc(Sc2cncc3sc(C(N)=O)cc23)cc1 | 1
77 | O=C(COc1ccc(C(=O)c2ccccc2)cc1)NC1CCN(Cc2ccccc2)CC1 [AdipoRon] | 0.983
78 | CC1(C)S[C@@H]2[C@H](NC(=O)[C@H](N)c3ccc(O)cc3)C(=O)N2[C@H]1C(=O)O [Amoxicillin] | 1.02 and 0.968
79 | CNC(=O)c1cc(COc2nnc(Nc3ccc(Cl)cc3)c3ccoc23)ccn1 [Telatinib] | 0.91
80 | CO[C@H]1/C=C/O[C@@]2(C)Oc3c(C)c(O)c4c(O)c(c(/C=N/N5CCN(C)CC5)c(O)c4c3C2=O)NC(=O)/C(C)=C\C=C\[C@H](C)[C@H](O)[C@@H](C)[C@@H](O)[C@@H](C)[C@H](OC(C)=O)[C@@H]1C [Rifampicin] | 0.929
